This assay has as its target cAMP response element-binding protein (Creb), phosphorylated (pCreb) (rat (endogenous in Clone 9 cells)) (UniProt P15337). Put plainly: co-IP; RNA immunoprecipitation (Magna RIP kit): C9 cell lysate incubated in RIP buffer with magnetic beads coated with anti-Creb (pCreb) antibody or control IgG; proteins of the precipitate analysed by western blot; 10% input.

By UniProt entry, the sequences of proteins in these tests, tags left out. Where a name states a change or a piece, a line headed by the entry shows the natural chain unless it says otherwise. Chains listed by the source or under a name are the forms on record and can include a tag or linker.
cAMP response element-binding protein (Creb), phosphorylated (pCreb) (rat (endogenous in Clone 9 cells)) (P15337, form named): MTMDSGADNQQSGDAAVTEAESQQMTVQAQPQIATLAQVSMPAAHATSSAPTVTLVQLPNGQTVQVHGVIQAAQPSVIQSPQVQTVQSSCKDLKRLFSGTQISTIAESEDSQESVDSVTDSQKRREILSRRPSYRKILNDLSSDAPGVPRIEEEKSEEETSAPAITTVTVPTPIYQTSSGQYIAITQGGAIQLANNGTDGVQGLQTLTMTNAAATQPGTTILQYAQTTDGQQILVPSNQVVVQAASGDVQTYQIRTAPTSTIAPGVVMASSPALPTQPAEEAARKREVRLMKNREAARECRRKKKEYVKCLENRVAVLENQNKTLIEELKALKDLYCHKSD
UniProt Q6JHU9: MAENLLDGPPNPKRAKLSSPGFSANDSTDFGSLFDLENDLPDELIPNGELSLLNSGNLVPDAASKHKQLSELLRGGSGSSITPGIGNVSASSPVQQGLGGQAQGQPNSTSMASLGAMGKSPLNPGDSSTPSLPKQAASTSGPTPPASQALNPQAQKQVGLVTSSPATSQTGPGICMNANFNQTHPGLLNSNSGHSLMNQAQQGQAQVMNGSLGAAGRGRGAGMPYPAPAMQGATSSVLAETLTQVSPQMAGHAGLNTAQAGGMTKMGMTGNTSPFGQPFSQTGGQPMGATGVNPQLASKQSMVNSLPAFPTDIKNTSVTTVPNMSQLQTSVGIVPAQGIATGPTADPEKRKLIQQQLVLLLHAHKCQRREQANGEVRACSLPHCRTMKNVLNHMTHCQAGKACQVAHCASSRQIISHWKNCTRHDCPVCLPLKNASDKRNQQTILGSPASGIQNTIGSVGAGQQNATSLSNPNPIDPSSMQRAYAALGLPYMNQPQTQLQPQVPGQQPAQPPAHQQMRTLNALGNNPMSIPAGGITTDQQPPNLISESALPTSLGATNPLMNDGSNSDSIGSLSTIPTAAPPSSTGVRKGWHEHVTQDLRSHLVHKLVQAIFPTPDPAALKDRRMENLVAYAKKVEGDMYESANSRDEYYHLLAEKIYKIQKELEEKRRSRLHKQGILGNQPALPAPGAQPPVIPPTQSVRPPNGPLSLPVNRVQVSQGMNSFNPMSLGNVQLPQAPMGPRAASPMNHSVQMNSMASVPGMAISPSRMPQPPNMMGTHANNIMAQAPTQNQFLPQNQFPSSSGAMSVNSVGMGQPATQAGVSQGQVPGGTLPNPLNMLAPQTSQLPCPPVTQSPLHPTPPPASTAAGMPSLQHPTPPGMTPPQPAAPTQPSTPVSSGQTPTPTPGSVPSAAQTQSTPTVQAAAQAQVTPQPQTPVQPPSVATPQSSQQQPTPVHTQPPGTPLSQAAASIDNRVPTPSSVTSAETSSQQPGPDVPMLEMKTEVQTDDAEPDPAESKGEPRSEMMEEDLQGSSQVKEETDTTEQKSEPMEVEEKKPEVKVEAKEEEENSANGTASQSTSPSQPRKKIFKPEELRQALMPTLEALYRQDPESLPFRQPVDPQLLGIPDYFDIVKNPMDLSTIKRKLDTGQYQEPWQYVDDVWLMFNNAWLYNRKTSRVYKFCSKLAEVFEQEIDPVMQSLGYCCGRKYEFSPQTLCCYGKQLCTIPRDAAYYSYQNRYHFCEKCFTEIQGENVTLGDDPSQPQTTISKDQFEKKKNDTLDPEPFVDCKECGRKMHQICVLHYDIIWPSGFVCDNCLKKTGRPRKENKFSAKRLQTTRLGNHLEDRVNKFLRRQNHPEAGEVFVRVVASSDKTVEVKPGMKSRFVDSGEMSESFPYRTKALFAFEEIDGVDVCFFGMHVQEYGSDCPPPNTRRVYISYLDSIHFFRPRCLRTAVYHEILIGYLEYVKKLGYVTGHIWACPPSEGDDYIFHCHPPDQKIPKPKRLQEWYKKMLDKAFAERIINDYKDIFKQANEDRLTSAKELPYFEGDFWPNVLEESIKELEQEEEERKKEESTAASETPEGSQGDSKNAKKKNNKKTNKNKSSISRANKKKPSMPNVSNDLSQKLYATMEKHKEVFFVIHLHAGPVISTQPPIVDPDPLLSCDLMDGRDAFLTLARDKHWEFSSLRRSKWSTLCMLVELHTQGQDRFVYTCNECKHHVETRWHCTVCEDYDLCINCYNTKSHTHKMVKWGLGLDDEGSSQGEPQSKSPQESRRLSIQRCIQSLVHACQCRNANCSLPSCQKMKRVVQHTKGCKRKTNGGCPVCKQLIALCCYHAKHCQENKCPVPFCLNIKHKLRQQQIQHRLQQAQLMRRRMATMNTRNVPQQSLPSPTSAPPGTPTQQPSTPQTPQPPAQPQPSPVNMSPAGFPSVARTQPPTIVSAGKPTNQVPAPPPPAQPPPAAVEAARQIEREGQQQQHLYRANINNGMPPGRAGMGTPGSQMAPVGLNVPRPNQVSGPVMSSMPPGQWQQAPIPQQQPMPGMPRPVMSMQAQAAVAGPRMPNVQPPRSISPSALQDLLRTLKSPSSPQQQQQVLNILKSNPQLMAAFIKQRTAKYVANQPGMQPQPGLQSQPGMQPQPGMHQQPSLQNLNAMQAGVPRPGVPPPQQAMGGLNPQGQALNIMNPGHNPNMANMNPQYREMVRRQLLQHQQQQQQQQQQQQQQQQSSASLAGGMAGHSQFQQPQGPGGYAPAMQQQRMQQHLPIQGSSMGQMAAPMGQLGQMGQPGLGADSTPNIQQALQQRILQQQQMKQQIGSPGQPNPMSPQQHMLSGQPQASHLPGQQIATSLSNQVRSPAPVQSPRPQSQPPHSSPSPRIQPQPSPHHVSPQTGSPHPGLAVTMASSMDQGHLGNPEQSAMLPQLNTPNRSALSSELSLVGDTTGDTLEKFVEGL

Drawing on article PMC11234455, this text covers binding for one substance.

These are yes or no findings as the source states them, for the method shown. Binding seen in cells or lysates may run through a third protein. Some entries that bind do so weakly or less than the wild type.

For the substance “cAMP response element-binding protein-binding protein (CBP) (from UniProt Q6JHU9 1-2442)”, the binding entry is given as “binds”.
